In this experiment the target is 14-3-3 epsilon (human (endogenous in U251)) (UniProt P62258). As to the kind of experiment: co-IP; endogenous proteins in U251 lysate (RIPA buffer), immune complexes on protein A-Sepharose beads, washed with PBS; control cells, cells in EBSS (starvation) and cells transfected with CLIC4 siRNA; the precipitating antibody is not stated.

Protein sequences, listed by entry. Tags and fused reporters are not part of them.
UniProt P62258: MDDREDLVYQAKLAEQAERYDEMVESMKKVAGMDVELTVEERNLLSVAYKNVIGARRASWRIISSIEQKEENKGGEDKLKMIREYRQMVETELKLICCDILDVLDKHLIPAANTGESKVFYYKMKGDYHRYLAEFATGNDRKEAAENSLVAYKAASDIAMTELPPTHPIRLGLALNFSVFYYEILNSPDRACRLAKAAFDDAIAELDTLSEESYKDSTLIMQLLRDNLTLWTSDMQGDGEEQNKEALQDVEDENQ
UniProt Q9Y696: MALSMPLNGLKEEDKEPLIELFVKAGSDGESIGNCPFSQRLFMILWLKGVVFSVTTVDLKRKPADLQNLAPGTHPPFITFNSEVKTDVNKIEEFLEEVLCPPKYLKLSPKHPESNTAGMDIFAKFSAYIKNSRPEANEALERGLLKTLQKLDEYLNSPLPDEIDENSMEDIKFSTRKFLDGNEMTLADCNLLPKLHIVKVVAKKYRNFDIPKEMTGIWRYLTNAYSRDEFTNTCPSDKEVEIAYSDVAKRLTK

No constants are given. Whether binding was seen depends on the method and setting. In cells and extracts the contact can be indirect. Some binding calls cover weakened binding; strength is not graded here.

As for CLIC4 (from UniProt Q9Y696 1-253), the binding result is on record as “binds”.

(Values after paper PMC3382619.)
